Measured values from PMC5945585.
No constants are given. Whether binding was seen depends on the method and setting. Binding seen in cells or lysates may run through a third protein. Some entries that bind do so weakly or less than the wild type. Sequences can lack the tags named with a protein.

By UniProt entry, the sequences of proteins in these tests, tags left out.
UniProt Q14781: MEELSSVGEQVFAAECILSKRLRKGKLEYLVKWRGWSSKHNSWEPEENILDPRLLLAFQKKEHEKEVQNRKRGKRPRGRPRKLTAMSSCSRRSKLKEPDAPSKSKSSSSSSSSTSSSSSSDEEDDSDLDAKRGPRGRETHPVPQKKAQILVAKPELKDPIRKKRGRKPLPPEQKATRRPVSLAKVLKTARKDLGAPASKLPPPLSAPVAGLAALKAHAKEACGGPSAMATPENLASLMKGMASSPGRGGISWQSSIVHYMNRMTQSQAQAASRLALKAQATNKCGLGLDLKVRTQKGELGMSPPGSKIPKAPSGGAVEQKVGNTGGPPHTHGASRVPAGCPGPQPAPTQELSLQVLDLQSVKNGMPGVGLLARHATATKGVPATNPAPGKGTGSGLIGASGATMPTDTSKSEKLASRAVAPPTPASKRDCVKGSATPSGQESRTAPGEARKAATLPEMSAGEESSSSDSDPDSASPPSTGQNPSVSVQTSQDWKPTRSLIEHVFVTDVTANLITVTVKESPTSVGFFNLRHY

Biological target: GFP-tagged CBX2 (transient, HEK293-FT) (human) (UniProt Q14781)
Assay: co-IP; IP and immunoblot from HEK293-FT cells transfected with GFP-tagged CBX2 alone or with FLAG-tagged CBX4

B1: FLAG-tagged CBX4 (enzyme, UniProt O00257 1-560)
chain: MELPAVGEHVFAVESIEKKRIRKGRVEYLVKWRGWSPKYNTWEPEENILDPRLLIAFQNRERQEQLMGYRKRGPKPKPLVVQVPTFARRSNVLTGLQDSSTDNRAKLDLGAQGKGQGHQYELNSKKHHQYQPHSKERAGKPPPPGKSGKYYYQLNSKKHHPYQPDPKMYDLQYQGGHKEAPSPTCPDLGAKSHPPDKWAQGAGAKGYLGAVKPLAGAAGAPGKGSEKGPPNGMMPAPKEAVTGNGIGGKMKIVKNKNKNGRIVIVMSKYMENGMQAVKIKSGEVAEGEARSPSHKKRAADERHPPADRTFKKAAGAEEKKVEAPPKRREEEVSGVSDPQPQDAGSRKLSPTKEAFGEQPLQLTTKPDLLAWDPARNTHPPSHHPHPHPHHHHHHHHHHHHAVGLNLSHVRKRCLSETHGEREPCKKRLTARSISTPTCLGGSPAAERPADLPPAAALPQPEVILLDSDLDEPIDLRCVKTRSEAGEPPSSLQVKPETPASAAVAVAAAAAPTTTAEKPPAEAQDEPAESLSEFKPFFGNIIITDVTANCLTVTFKEYVTV
binding: binds
